According to paper PMC3459738:
Results are given in words; binding and its absence hold for the method and conditions named. In cells and extracts the contact can be indirect. Some results given as binding are weak or reduced against the parent protein; the word gives no strength.

Sequences of proteins named here, by UniProt entry; tags and fusion partners are left off.
UniProt Q99873: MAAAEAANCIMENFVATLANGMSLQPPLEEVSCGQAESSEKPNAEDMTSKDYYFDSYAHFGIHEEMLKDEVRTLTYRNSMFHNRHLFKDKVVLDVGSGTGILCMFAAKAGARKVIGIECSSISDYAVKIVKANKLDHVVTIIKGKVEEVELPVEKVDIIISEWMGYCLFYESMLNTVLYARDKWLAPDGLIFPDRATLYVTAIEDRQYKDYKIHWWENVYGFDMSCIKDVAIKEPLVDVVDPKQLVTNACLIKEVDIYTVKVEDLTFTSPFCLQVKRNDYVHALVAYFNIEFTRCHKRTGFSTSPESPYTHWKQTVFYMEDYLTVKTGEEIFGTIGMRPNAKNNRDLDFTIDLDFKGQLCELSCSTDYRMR
UniProt Q07955: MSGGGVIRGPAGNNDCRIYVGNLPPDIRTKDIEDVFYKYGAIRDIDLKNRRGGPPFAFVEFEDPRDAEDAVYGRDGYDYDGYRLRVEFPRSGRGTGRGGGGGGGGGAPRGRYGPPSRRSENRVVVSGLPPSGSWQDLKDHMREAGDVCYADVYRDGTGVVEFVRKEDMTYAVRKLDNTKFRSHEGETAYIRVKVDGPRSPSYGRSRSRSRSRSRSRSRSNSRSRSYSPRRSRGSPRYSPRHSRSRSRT

Columns and labels:
[1] = target: protein arginine methyltransferase 1 (human (endogenous in Nalm-6)) (UniProt Q99873); test: co-IP; endogenous proteins in Nalm-6 whole cell lysate (RIPA buffer, 1.0 % NP40, 100 mM NaCl); 1.0 ug anti-SRSF1 or anti-PRMT1 antibody with 1.0 mg lysate overnight at 4 °C, Protein G-Plus beads; washes with 150 mM NaCl, 1.0 % NP40; western blot; IgG as negative control; reciprocal
[2] = target: Serine/arginine-rich splicing factor 1 (human (endogenous in Nalm-6)) (UniProt Q07955); test: as above

binding [1]	binding [2]	Substance
binds		Serine/arginine-rich splicing factor 1 (from UniProt Q07955 1-248)
	binds	protein arginine methyltransferase 1 (from UniProt Q99873 1-371) (enzyme)
